# Source: article PMC7247550
# By UniProt entry, the sequences of proteins in these tests, tags left out.
# UniProt P15531: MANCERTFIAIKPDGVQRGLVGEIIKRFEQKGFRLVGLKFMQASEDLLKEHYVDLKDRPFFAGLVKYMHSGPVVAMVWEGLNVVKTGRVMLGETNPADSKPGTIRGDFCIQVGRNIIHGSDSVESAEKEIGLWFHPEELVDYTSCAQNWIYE
# UniProt P06733: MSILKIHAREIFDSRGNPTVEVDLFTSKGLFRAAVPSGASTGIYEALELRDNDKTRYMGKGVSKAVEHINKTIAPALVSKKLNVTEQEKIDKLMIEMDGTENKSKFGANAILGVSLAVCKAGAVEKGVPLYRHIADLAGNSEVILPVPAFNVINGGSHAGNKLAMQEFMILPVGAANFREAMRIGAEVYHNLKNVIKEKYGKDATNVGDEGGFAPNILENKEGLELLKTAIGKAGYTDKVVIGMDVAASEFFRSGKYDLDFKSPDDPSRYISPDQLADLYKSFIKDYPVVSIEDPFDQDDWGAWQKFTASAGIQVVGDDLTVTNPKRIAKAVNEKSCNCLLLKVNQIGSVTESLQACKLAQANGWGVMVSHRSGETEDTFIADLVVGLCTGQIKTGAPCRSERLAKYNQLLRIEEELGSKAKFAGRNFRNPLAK
# UniProt P04406: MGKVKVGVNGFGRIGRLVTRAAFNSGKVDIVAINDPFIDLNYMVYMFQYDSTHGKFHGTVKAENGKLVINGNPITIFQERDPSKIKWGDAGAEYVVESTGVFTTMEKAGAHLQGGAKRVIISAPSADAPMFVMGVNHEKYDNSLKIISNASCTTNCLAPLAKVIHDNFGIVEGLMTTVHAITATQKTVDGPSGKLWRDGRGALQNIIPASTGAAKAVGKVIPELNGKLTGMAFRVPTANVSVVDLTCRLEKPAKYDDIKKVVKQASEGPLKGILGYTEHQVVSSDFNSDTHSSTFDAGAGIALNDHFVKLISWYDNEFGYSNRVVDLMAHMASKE
# UniProt P14618: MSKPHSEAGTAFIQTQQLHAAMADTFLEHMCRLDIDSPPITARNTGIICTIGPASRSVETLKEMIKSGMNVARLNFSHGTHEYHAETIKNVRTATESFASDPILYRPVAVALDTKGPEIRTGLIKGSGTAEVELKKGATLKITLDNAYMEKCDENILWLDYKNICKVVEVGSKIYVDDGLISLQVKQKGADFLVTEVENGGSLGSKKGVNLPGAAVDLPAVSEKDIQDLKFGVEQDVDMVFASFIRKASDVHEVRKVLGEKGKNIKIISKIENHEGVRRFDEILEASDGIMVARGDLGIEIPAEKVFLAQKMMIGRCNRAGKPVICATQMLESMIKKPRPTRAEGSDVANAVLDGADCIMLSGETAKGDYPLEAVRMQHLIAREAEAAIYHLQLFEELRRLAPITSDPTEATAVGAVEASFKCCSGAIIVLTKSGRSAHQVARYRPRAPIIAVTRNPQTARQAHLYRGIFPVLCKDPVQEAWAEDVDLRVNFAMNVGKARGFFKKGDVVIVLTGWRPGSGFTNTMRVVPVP
# Results are given in words; binding and its absence hold for the method and conditions named. In cells and extracts the contact can be indirect. A yes stands for co-enrichment or nearness to the bait. Other partners may have been found.
# Molecular target: NME1 (human (endogenous in SK-N-BE(2) and SK-N-AS)) (UniProt P15531)
# Test: affinity purification with mass spectrometry; endogenous NME1 immunoprecipitated with mouse monoclonal nm23-H1 sc-465 antibody and protein A agarose from SK-N-BE(2) and SK-N-AS lysates (20 mM Tris HCl pH 8, 100 mM NaCl, 2 mM EDTA, 1% NP40, Benzonase), 4 °C; eluted proteins digested with trypsin, LC-MS/MS
row,binding,Substance
1,binds,ENO1 (from UniProt P06733 1-434)
2,binds,GAPDH (from UniProt P04406 1-335)
3,binds,PKM (from UniProt P14618 1-531)
